Test results as given in publication PMC5047748.
No constants are given. Whether binding was seen depends on the method and setting. In cells and extracts the contact can be indirect. For some assays here: Binding calls can cover weak binding; strength is not graded here.

Tests used:
Test in all cases: co-IP; transfected S2R+ cells; RIPA lysis buffer (50 mM Tris pH 7.5, 150 mM NaCl, 1 mM EDTA, 1% NP40, 5% glycerol); 1 µg antibodies 1 hr then Protein A beads 2 hr at 4°C; western blot
[1] = target: T1, Dlish (CG10933), expressed in S2 cells for co-IP (Drosophila melanogaster) (UniProt A1ZAY1)
T1 sequence: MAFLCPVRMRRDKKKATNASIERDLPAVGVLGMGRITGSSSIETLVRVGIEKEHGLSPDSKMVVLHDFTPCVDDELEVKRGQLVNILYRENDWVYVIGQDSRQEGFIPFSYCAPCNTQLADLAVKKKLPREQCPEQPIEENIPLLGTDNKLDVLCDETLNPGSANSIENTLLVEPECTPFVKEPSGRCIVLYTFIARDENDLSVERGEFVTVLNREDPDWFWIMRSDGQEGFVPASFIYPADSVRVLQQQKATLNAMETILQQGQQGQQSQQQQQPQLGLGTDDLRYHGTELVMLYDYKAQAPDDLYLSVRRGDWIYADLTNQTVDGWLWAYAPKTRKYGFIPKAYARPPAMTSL

[2] = target: Dachs, expressed in S2 cells for co-IP (Drosophila melanogaster)
FatΔECD (Drosophila) = target: FatΔECD (Drosophila)
[3] = target: FatΔECD-Hippo (Drosophila)
[4] = target: FatΔECD-PH+Hippo (Drosophila)
FatΔECDΔ4-C (Drosophila) = target: FatΔECDΔ4-C (Drosophila)
FatΔECDΔN-6 (Drosophila) = target: FatΔECDΔN-6 (Drosophila)
Slimb (Drosophila) = target: Slimb (Drosophila)

**Q.** With “Dachs, expressed in S2 cells for co-IP (Drosophila melanogaster)” as the molecule, how does the binding [1] read?
**A.** Its binding is “binds”.

B1: Dlish (CG10933), expressed in S2 cells for co-IP (protein, UniProt A1ZAY1 1-355)
chain: T1 sequence
**Q.** Which results are given for B1?
**A.** binding [2]: binds; binding (FatΔECD (Drosophila)): binds; binding [3]: no binding; binding [4]: binds; binding (FatΔECDΔ4-C (Drosophila)): no binding; binding (FatΔECDΔN-6 (Drosophila)): binds; binding (Slimb (Drosophila)): binds
